In paper PMC4712785:
No constants are given. Whether binding was seen depends on the method and setting. In cells and extracts the contact can be indirect. Some results given as binding are weak or reduced against the parent protein; the word gives no strength. For part of these data: Where a sequence is shown, tags or fusion partners need not be part of it.

T1: GST–Rho1^Q68L (constitutively active, GTP-locked mutant) (S. cerevisiae) (UniProt P06780)
T1 sequence: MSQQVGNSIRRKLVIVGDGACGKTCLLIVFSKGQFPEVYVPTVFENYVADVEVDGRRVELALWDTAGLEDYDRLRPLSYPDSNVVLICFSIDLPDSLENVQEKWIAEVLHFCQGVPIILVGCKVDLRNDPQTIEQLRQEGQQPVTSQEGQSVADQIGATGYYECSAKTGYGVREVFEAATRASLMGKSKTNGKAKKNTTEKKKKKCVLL

T2: GST–Ras2 (S. cerevisiae) (UniProt P01120)
T2 sequence: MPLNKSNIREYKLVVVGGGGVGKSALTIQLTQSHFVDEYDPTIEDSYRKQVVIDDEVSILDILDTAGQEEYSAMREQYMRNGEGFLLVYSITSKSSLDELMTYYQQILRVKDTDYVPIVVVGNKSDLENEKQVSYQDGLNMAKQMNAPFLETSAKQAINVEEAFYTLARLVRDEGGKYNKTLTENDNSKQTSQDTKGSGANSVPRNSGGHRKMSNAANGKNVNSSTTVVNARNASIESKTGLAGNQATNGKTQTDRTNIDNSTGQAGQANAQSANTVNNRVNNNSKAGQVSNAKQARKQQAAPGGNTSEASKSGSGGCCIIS


Experiments:
Assay in all cases: pull-down; ~5 µg GST or GST–GTPase on glutathione-agarose beads incubated with [35S]Met-labeled in vitro translated α-arrestins, 4°C, 2 h, 20 mM HEPES pH 7.4, 150 mM NaCl, 5 mM MgCl2, 10% glycerol, 0.1% Triton X-100; phosphorimager; GST–Rho1 also nucleotide-free or with 0.2 mM GTPγS or GDPβS; only the target purified
[1] = biological target: GST–Rho1^G22A (nucleotide-free mutant) (S. cerevisiae) (UniProt P06780)
[2] = biological target: T1, GST–Rho1^Q68L (constitutively active, GTP-locked mutant) (S. cerevisiae)
GST–Rho1 (S. cerevisiae) = GST–Rho1 (S. cerevisiae) (UniProt P06780)
GST–Ras2 (S. cerevisiae) = biological target: T2, GST–Ras2 (S. cerevisiae)

| binding [1] | binding [2] | binding (GST–Rho1 (S. cerevisiae)) | binding (GST–Ras2 (S. cerevisiae)) | Binder |
| --- | --- | --- | --- | --- |
| binds | binds | binds | – | Aly2, in vitro transcribed-translated and radiolabeled (protein, UniProt P47029 1-1046, [35S]Met-labeled) MPMDQSISSPLFPMEKDIDIPLDATPLAQSSSLQLFIHLAEPVVFLQGFDPQKTEYPSVVLRGCLVVRILKPTKLKSISLSFKGYSRTEWPEGIPPKRQEFVEIKDIVDHTWALYPPTEQKSKKKMDASAPNESNNAANNFLTKESGASLYRTLSDNETITSRKNSISGLSSLNLSPLGAPGNSSVNVKDRESRQRSRSSSVTSSNGPSRNLSPINLLKRATSPSVSHHNYKPTTTSIFSDLLNNTFTHNDAASHHGHHIPTSSNHLAMTSNNFTSGSGGEFFVFQPGDYIYAFEELIPQAYPESIKADFGFVEYFLFASIERPGAFKSNISARQVVNIVRTQAHNSVEESEPIIISRDWENQLYYDIVIASKDIILDAFLPITFKFAPLDKVTLHRIRIYVTETMEYYCREKKVHRMEPTKKFLLTEQKGPKLPNLPNDANLSKAKNMGNLLQDPKNGDLVNKEYEYQIFIPSRFNNHQQLHPDTSYENIKANHWIKICLRLSRVVDNKRKHYEISIDSPIHVLHRLCSHANTLLPSYDGHPASFPKETDSSISSILESSDDNINLYHNSNIFFPKEVLSSPVLSPNVQPLDILIPHLPSTSLTRNSRQFNRNSKSHPSDNTIFNSAKLKSNIYQPESLQRELASPQAIPLSPITSPMSNMEVPPPDFDFSSDFISDAASGTTTTEVSSSESSILPRDPPSYKDTVLHDNNQKRRPNSKHPTPPSLKASHPNKNSDKNSSETLNKKESMSKIEENKHKRETTPKKRENRDVKSLSTPQREESKDSTSTGNQSNEKNRKRVLSLSSSLHSSPNNSGFAHSALGNLSNESLRSLNRRESVQDNLPSTIRHDNPFFTDLNQVLIEDELKNHDKNELNRHSTNTSSTPASARSSFDYSGINISKDKLNMEPLLSKTETLTNKVNEDSFLRPNDSYVDLLEPSVDTTIDITAPYARNSSAWHPLQNDNDNNQFSPLLGSNENFLNAANAQNSAESDHNNDIFTQGSGLTESSKNSDSEERFISRLSSPEKVLINTLDNESGLQSINESTL |
| – | – | binds | binds | Rog3, in vitro transcribed-translated and radiolabeled (protein, UniProt P43602 1-733, [35S]Met-labeled) MGFSSGKSTKKKPLLFDIRLKNVDNDVILLKGPPNEAPSVLLSGCIVLSINEPMQIKSISLRLYGKIQIDVPLERPQDASSSSLSSSPPKIRKYNKVFYNYAWDNVNLKEYLSGLRGQSGLAGSSSSSNILGTRQRAQSTSSLKSLKGSSSPSSCTLDKGNYDFPFSAILPGSLPESVESLPNCFVTYSMESVIERSKNYSDLICRKNIRVLRTISPAAVELSETVCVDNSWPDKVDYSISVPNKAVAIGSATPINISIVPLSKGLKLGSIKVVLFENYQYCDPFPPVISENRQVTELNLEDPLNESSGEFNGNGCFVNNPFFQPDHSFQDKWEIDTILQIPNSLSNCVQDCDVRSNIKVRHKLKFFIILINPDGHKSELRASLPIQLFISPFVALSIKPLSSSNLYSLFSTTNQKDENSSQEEEEEYLFSRSASVTGLELLADMRSGGSVPTISDLMTPPNYEMHVYDRLYSGSFTRTAVETSGTCTPLGSECSTVEDQQQDLEDLRIRLTKIRNQRDNLGLPPSASSAAASRSLSPLLNVPAPEDGTERILPQSALGPNSGSVPGVHSNVSPVLLSRSPAPSVSAHEVLPVPSGLNYPETQNLNKVPSYGKAMKYDIIGEDLPPSYPCAIQNVQPRKPSRVHSRNSSTTLSSSIPTSFHSSSFMSSTASPISIINGSRSSSSGVSLNTLNELTSKTSNNPSSNSMKRSPTRRRATSLAGFMGGFLSKGNKR |
| binds | binds | binds | binds | Ldb19, in vitro transcribed-translated and radiolabeled (protein, UniProt Q12502 1-818, [35S]Met-labeled) MAFSRLTSTHQSNHNGYSNSNKKGQSLPLTLSIDVESPPCVLYGSAMESSGAVLSGLFTVTVVDPYSSAEDKSLKNTESNVSTTSKSLKRKSTFGSALSSRLSSLSASTSNISPSTSSTSISHSPTPANLRIMAGYTKITITSVTLSLVQKIHFHKPFVPNISSMQTCMNCKTKITNMKSWEIQSNTQDLSVGSHSYPFSYLIPGSVPCSSSLGATAETQVKYELIAVVTYIDPHRNSFSSGHSTPRKEGSSSKKRLLQLAMPIAVTRSIPRGPDKNSLRVFPPTELTAAAVLPNVVYPKSTFPLEMKLDGVSSGDRRWRMRKLSWRIEETTRVKAHACPVHKHELRQLEEQVKIKESEKSKKPRSHIKRYGELGPQIRVAVNSLENMPSQRLPGEPGREQAPNSSGPASTGNVGLDDENPVNEDEEDQPGSEFIHPSDDALRQELLMQQQRARQQQLQQELKNNSSLFTEEVRIISKGEMKSGWKTDFDNNGKIELVTEIDCMGLNSGVSNPVMHASTLQTPSTGNKKPSINVACDIQDPNLGLYVSHILAVEIVVAEETLQYANGQPIRKPNSKNKKETNNNTMNVHNPDQRLAELSPIFANRNTPKVRRMGPEDITPVNSNKSNHSTNKEKASNGASNSNIVSVPTGAARVLRMQFRLTVTERSGLGISWDEEVPPIYQDVELLSPPCYELSINNGIKNKLYSTMSTPVRSEDDFVGGSDEDIGNYESQGLEPGPNVQEVTITQNKLTIPPTAHHYQPASSSQRSLTTVQSPPLESVVSVQGSVPFRGHVLTPHSTRDIRIQNFSDFLDSNRITQ |
| binds | binds | binds | – | Aly1, in vitro transcribed-translated and radiolabeled (protein, UniProt P36117 1-915, [35S]Met-labeled) MLQFNTENDTVAPVFPMEQDINAAPDAVPLVQTTTLQVFVKLAEPIVFLKGFETNGLSEIAPSILRGSLIVRVLKPNKLKSISITFKGISRTEWPEGIPPKREEFSDVETVVNHTWPFYQADDGMNSFTLEHHSSNNSSNRPSMSDEDYLLEKSGASVYIPPTAEPPKDNSNLSLDAYERNSLSSDNLSNKPVSSDVSHDDSKLLAIQKTPLPSSSRRGSVPANFHGNSLSPHTFISDLFTKTFSNSGATPSPEQEDNYLTPSKDSKEVFIFRPGDYIYTFEQPISQSYPESIKANFGSVEYKLSIDIERFGAFKSTIHTQLPIKVVRLPSDGSVEETEAIAISKDWKDLLHYDVVIFSKEIVLNAFLPIDFHFAPLDKVTLHRIRIYLTESMEYTCNSNGNHEKARRLEPTKKFLLAEHNGPKLPHIPAGSNPLKAKNRGNILLDEKSGDLVNKDFQFEVFVPSKFTNSIRLHPDTNYDKIKAHHWIKICLRLSKKYGDNRKHFEISIDSPIHILNQLCSHANTLLPSYESHFQYCDEDGNFAPAADQQNYASHHDSNIFFPKEVLSSPVLSPNVQKMNIRIPSDLPVVRNRAESVKKSKSDNTSKKNDQSSNVFASKQLVANIYKPNQIPRELTSPQALPLSPITSPILNYQPLSNSPPPDFDFDLAKRGAADSHAIPVDPPSYFDVLKADGIELPYYDTSSSKIPELKLNKSRETLASIEEDSFNGWSQIDDLSDEDDNDGDIASGFNFKLSTSAPSENVNSHTPILQSLNMSLDGRKKNRASLHATSVLPSTIRQNNQHFNDINQMLGSSDEDAFPKSQSLNFNKKLPILKINDNVIQSNSNSNNRVDNPEDTVDSSVDITAFYDPRMSSDSKFDWEVSKNHVDPAAYSVNVASENRVLDDFKKAFREKRK |
